Experimental findings from publication PMC5864894 are described below.

No constants are given. Whether binding was seen depends on the method and setting. Some binding calls cover weakened binding; strength is not graded here.

The target in assay [1] is AscY (A. salmonicida) (A. salmonicida) (UniProt Q8GA92). Nature of the assay: two-hybrid.
Assay [2] has as its target VscY (V. harveyi) (V. harveyi) (UniProt Q6QVR8). The experiment in a line: two-hybrid.

For the substance “AscX (A. salmonicida) (from UniProt Q8GA93 1-121)”, the binding result in assay [1] is given as “binds”.

Regarding “VscX (V. harveyi) (from UniProt Q6QVR7 1-125)”, the binding result in assay [2] is recorded as “binds”.
